Test results published in publication PMC9841631.
These are yes or no findings as the source states them, for the method shown. Binding seen in cells or lysates may run through a third protein. Some results given as binding are weak or reduced against the parent protein; the word gives no strength.

Chains of the proteins cited; added tags and fusions are not shown.
UniProt P20152: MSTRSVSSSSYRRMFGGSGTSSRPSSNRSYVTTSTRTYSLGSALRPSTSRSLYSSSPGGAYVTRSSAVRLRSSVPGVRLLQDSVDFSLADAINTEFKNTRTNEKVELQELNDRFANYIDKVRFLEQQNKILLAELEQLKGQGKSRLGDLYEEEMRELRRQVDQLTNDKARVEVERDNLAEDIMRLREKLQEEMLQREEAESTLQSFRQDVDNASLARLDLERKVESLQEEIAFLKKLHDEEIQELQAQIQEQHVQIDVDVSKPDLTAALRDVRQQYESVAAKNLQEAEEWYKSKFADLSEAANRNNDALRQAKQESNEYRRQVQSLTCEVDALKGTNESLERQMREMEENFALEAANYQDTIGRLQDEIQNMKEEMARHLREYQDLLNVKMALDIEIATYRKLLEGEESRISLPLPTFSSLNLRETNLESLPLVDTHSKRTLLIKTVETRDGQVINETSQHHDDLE

Molecular target: vimentin (mouse (endogenous in NIH3T3 and SVEC4-10)) (UniProt P20152)
Assay: co-IP; endogenous proteins of NIH3T3 lysate; Co-IP buffer (Tris-HCl 50mM, pH7.4, MgCl2 10mM, NaCl 150mM, TritonX-100 0.5%); anti-MXRA7 (SZ181) or anti-vimentin antibody, protein A/G agarose, 4°C; western blot

B1: MXRA7 (endogenous) (protein, UniProt Q9CZH7 1-178)
chain: MESPVELLAALPALVTALALLLAWLLLRRGAARVPAPESTASDEAPGAPAPPEPPESCAPEPAPEGPSQSERVAEPEESEAEEPAAEGRQDEDSDSEMGPPTEEPEEEDGAAFSFKYSPGQLRGSQYKKMMTKEELEEEHRVQKEQLAAIFKLMKDNKDTFGEMSDGDMQEQLRLYDM
With B1 the binding was “binds”.
